Record: PubChem BioAssay AID504804 (Drosophila RNAi Screening Center, 2011)

Aim: 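dsRNAs that improve Kc cell survival under doxorubicin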 (primary screen)
System: Drosophila Kc cells
Reagent: long dsRNA against Drosophila genes, 0.5 µg dsRNA per well
Timing: 96 h (48 h knock-down, then 48 h drug)
Treatment: doxorubicin 5 µg/ml for 48 h, added 48 h after dsRNA
Measured: 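Viability measured as cellular ATP by luminescence after 48 h knock-down then 48 h doxorubicin at 5 µg/ml; unnormalised plate counts for each replicate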
Scale: raw ATP luminescence: higher = more viable cells, protection from doxorubicin
Active means: 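Active when both duplicate wells lie at least 2 SD above the plate mean and protection is confirmed by rescreening and independent dsRNAs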
The screen tested about 19,000 reagents; below is an unselected part of those that have a named target and a result. Of all reagents, 47 (0.25%) were called active. 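Signals are raw, not normalised; exact z-scores behind calls not deposited; actives needed confirmation, so some wells reaching 2 SD are inactive.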 A number with no mark means an inactive call. Names joined by + are all predicted targets of the reagent.

The opening 3 records as a preview:
predicted target,amplicon,SD above plate mean,"raw ATP luminescence, replicate 1","raw ATP luminescence, replicate 2"
Fitm,DRSC09772,,40177,40063
Art2,DRSC00627,,29360,29687
CG30047,DRSC05340,,86190,99057

Main list, from the start:
predicted target,amplicon,SD above plate mean,"raw ATP luminescence, replicate 1","raw ATP luminescence, replicate 2"
Fitm,DRSC09772,,40177,40063
Art2,DRSC00627,,29360,29687
CG30047,DRSC05340,,86190,99057
ATPsyndelta,DRSC18248,,3.04e5,2.45e5
CG15570,DRSC18058,,45850,52040
CG13305,DRSC09975,,60293,69803
E2f2,DRSC03320,,64337,57787
CG15099,DRSC06528,,87517,61693
gem,DRSC06093,,56493,50120
gem,DRSC06847,,35943,66317
CG13847,DRSC14697,,23507,26503
Usp30,DRSC18265,,54050,51180
CG8944,DRSC20128,,1.87e5,1.61e5
shn,DRSC05266,,79777,86210
shn,DRSC07681,,70593,58267
CG34217,DRSC05083,,64317,65687
Prosbeta2R1,DRSC18154,,32380,45620
CG3862,DRSC00631,,1.35e5,69657
CG3902,DRSC10387,,1.04e5,72870
milt,DRSC00965,,2.60e5,2.44e5
milt,DRSC00966,,3.02e5,2.67e5
milt,DRSC02281,,1.20e5,61673
CG43861,DRSC02308,,60940,63003
path,DRSC10361,,1.04e5,98897
CG34228,DRSC05300,,81267,1.03e5
hiro,DRSC08564,,87750,75930
Pfrx,DRSC18856,,2.85e5,3.06e5
Pfrx,DRSC19315,,2.13e5,2.41e5
drk,DRSC07606,,41773,48343
CG9483,DRSC03226,,33017,33973
Saf6,DRSC00633,,93503,64247
Shc,DRSC11284,,95073,70123
CG9896,DRSC03962,,68770,68273
CG9896,DRSC04594,,51163,57197
MESR3,DRSC02463,,43983,40633
Hdc,DRSC07439,,64060,57753
CG15473,DRSC18056,,40930,51340
Nbr,DRSC03166,,71600,57950
Try29F,DRSC03466,,44610,51630
Pld3,DRSC03167,,87727,75743
CYLD,DRSC02870,,38670,78733
twi,DRSC04720,,38000,34490
Mst84B,DRSC12579,,62853,67230
CG10576,DRSC09745,,38020,42747
eIF3k,DRSC04056,,82580,84380
CG17378,DRSC02616,,31897,38070
CG11583,DRSC08202,,32130,32613
Jhbp15,DRSC15217,,77290,64680
slif,DRSC11635,,21793,19703
Ugt49B1,DRSC04461,,46930,43417
PIG-O,DRSC06123,,69920,61773
Edg91,DRSC16657,,92940,75630
Dhdds,DRSC17756,,33600,34610
CG7631,DRSC01873,,64200,70550
Uba5,DRSC19775,,3.63e5,3.33e5
msk,DRSC11340,,33203,41793
CG11322,DRSC02142,,25707,34587
CG13862,DRSC14712,,47890,85140
Pstk + Tim9b,DRSC20292,,3.45e5,2.73e5
Sry-alpha,DRSC16867,,68890,68640
CG7294,DRSC03041,,50983,68013
Tcs3,DRSC10461,,46863,38713
Or59a,DRSC04631,,50333,57573
Mco4,DRSC20061,,3.57e5,3.61e5
CG10194,DRSC02025,,76643,55663
dpr5,DRSC15766,,61970,59060
fry,DRSC08993,,1.83e5,1.87e5
fry,DRSC10172,,85783,1.47e5
fry,DRSC10709,,76273,1.33e5
fry,DRSC10712,,27017,26943
Osi17,DRSC12284,,63203,69160
Nadk1b,DRSC05432,,88163,84817
Nadk1b,DRSC06964,,57773,71777
CG42816 + CG42815,DRSC11230,,36053,27700
obst-B,DRSC01987,,1.05e5,68387
Kdsr,DRSC14245,,2.06e5,2.14e5
His1:CG33816 + His1:CG33828 + His1:CG33819 + 21 more,DRSC21266,,3.08e5,2.66e5
Eig71Ek,DRSC11158,,82773,60393
CG13248,DRSC11696,,77353,65127
Rcc1,DRSC09684,,50317,30713
CG34049,DRSC00104,,1.53e5,1.78e5
RluA-1,DRSC02240,,35747,79083
RluA-1,DRSC03060,,40143,76673
CG4709,DRSC02772,,82987,52803
CG31827 + CG18478,DRSC01958,,87817,87950
CG33722 + CG18749,DRSC12674,,67187,73863
CG33722 + CG18749,DRSC15386,,52767,59187
Frq2,DRSC20245,,4.06e5,3.40e5
CG34221,DRSC06150,,41643,64397
tor,DRSC07707,,52447,82273
CG5255,DRSC15754,,77070,80400
CG13793,DRSC02297,,72003,85513
Cyp312a1,DRSC11128,,94127,76377
caz,DRSC20317,,1.73e5,1.76e5
Npc1b,DRSC20488,,3.15e5,2.83e5
CG3294,DRSC00590,,1.03e5,81900
CG12347,DRSC14502,,39180,40340
CG13699,DRSC10048,,46080,48093
CG10939,DRSC06019,,61693,63700
beta4GalNAcTA,DRSC05944,,2.13e5,2.27e5
borr,DRSC02749,,74627,55993
robls54B,DRSC05660,,1.80e5,1.47e5
CG33702,DRSC08986,,1.71e5,1.87e5
CG11241,DRSC11641,2 to 3 SD above plate mean (active),50257,42770
CG7227,DRSC03032,,1.25e5,75817
Fbl6,DRSC06335,,79837,77457
Sems,DRSC11626,,62950,61943
